The values below are quoted from earlier work in patent US6586386B2, “Tablet of compacted particulate cleaning composition” (ISP Investments Inc., priority 2001, dated 2003).

The conditions of the data set: grams of solid to form a saturated solution in 100 g of water at 20° C.

`NC(N)=O` [Urea]: the “Water Solubility” value is on record as over 100 g/100 g.
